Measurements taken from patent publication US10717734B2, “Indole and azaindole haloallylamine derivative inhibitors of lysyl oxidases and uses thereof” (PHARMAXIS LTD., priority 2016, dated 2020).
Counter-ions that a name gives are not always drawn. For at least one compound, name, drawing or mass did not settle the structure.

Test system: primary fibroblasts from confirmed cases of IPF (fibroblastic foci)
Experiment: Collagen cross-link formation in in vitro fibroblastic foci model of IPF
Assay type: cell-based, human
Settings: TGF-β1 stimulated foci, six weeks culture with inhibitor
Text: Reduction of Collagen Cross-Link Formation in an in vitro Fibroblastic Foci Model of IPF
The lung tissue of patients with idiopathic pulmonary fibrosis (IPF) is characterised by dense collections of myofibroblasts and extracellular matrix (ECM) termed ‘fibroblastic foci’. Using a novel in vitro model of fibroblastic foci (Jones et al., AJRCCM 191; 2015:A4912) the formation of lysyl oxidase (LOX) mediated collagen cross-links and the effects of the nonselective LOX inhibitor β-aminopropionitrile (BAPN) as well lysyl oxidase like-2 (LOXL2)-selective inhibitors were investigated.
Cultures of primary fibroblasts were grown out from clinical diagnostic biopsies of fibrotic lung and stored in liquid nitrogen. […]
To quantify collagen cross-links (Robins Biochem Soc Trans 2007; 35(5): 849-852; Saito et al Anal. Biochem. 1997; 253: 26-32; Sims, Avery & Bailey Methods in Molecular Biology 2000; vol 139: 11-26), cultures were treated with potassium borohydride to stabilise the reducible immature cross-links, and hydrolysed in 6N HCl at 100° C. for 16 hr. Total collagen content was assessed by hydroxyproline assay. Immature cross-links were assessed by LC/MS/MS and mature pyridinoline cross-links by ELISA. Cross-link data is expressed as moles of cross-link per mole collagen. […]

CC(C)c1c(Cc2ccc(S(C)(=O)=O)nc2)c2ncccc2n1C/C(F)=C/CN [Compound 22, trihydrochloride] was tested, and the collagen cross-link formation was “reduced cross-link formation in a concentration dependent manner”.
